Laboratory results published in paper PMC8254283.
Results are given in words; binding and its absence hold for the method and conditions named. Binding seen in cells or lysates may run through a third protein. Some entries that bind do so weakly or less than the wild type.

Amino acid sequences for entries named in this document (tags omitted).
UniProt Q8TEK3: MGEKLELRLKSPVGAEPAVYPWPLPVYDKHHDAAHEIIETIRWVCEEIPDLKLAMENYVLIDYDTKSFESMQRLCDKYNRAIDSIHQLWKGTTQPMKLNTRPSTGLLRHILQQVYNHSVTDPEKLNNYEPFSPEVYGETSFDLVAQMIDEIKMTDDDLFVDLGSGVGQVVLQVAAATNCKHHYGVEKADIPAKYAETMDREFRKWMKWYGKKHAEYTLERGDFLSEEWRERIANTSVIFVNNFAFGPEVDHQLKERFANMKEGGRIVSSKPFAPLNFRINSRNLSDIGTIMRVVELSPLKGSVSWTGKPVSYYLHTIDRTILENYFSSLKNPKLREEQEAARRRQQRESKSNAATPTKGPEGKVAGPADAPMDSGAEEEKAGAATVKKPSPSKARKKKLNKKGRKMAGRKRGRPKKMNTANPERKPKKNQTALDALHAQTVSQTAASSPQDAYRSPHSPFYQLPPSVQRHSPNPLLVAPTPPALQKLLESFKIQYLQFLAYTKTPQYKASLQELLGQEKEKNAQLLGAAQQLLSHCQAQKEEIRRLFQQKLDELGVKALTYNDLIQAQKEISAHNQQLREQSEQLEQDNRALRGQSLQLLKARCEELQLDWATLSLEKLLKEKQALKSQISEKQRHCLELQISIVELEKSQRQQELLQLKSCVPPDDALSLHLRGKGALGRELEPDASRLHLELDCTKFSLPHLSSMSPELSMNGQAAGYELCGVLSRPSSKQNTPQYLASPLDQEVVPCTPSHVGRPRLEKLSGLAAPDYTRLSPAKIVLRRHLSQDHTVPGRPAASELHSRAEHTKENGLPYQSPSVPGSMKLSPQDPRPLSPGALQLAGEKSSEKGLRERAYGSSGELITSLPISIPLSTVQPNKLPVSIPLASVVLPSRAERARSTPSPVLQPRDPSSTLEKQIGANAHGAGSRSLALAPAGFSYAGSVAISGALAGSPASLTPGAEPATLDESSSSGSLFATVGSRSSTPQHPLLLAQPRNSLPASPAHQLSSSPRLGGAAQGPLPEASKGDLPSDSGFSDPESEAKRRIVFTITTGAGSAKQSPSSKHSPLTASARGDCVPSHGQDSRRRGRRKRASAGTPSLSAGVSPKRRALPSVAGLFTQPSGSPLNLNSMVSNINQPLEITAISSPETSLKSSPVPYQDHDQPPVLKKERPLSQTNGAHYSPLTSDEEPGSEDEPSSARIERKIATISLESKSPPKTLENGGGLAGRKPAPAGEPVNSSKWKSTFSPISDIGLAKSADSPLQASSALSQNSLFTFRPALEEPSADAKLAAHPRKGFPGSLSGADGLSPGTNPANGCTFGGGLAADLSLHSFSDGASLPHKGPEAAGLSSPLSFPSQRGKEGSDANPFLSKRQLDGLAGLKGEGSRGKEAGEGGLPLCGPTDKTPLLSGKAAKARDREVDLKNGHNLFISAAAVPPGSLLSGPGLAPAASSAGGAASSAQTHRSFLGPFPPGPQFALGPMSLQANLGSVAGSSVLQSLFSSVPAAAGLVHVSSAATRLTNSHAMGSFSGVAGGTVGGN

Target: HA-tagged DOT1L (UniProt Q8TEK3)
Test: co-IP; HEK-293T transfected with DOT1L-HA and AF10 vectors, 48 h; Pierce IP-Lysis Buffer; IgG or HA antibodies 16 h at 4 °C, DynaBead Protein A; immunoblot with AF10 antibody

B1: Wild-type AF10, expressed from cDNA (protein, UniProt P55197 1-1068)
chain: MVSSDRPVSLEDEVSHSMKEMIGGCCVCSDERGWAENPLVYCDGHGCSVAVHQACYGIVQVPTGPWFCRKCESQERAARVRCELCPHKDGALKRTDNGGWAHVVCALYIPEVQFANVSTMEPIVLQSVPHDRYNKTCYICDEQGRESKAATGACMTCNKHGCRQAFHVTCAQFAGLLCEEEGNGADNVQYCGYCKYHFSKLKKSKRGSNRSYDQSLSDSSSHSQDKHHEKEKKKYKEKDKHKQKHKKQPEPSPALVPSLTVTTEKTYTSTSNNSISGSLKRLEDTTARFTNANFQEVSAHTSSGKDVSETRGSEGKGKKSSAHSSGQRGRKPGGGRNPGTTVSAASPFPQGSFSGTPGSVKSSSGSSVQSPQDFLSFTDSDLRNDSYSHSQQSSATKDVHKGESGSQEGGVNSFSTLIGLPSTSAVTSQPKSFENSPGDLGNSSLPTAGYKRAQTSGIEEETVKEKKRKGNKQSKHGPGRPKGNKNQENVSHLSVSSASPTSSVASAAGSITSSSLQKSPTLLRNGSLQSLSVGSSPVGSEISMQYRHDGACPTTTFSELLNAIHNGIYNSNDVAVSFPNVVSGSGSSTPVSSSHLPQQSSGHLQQVGALSPSAVSSAAPAVATTQANTLSGSSLSQAPSHMYGNRSNSSMAALIAQSENNQTDQDLGDNSRNLVGRGSSPRGSLSPRSPVSSLQIRYDQPGNSSLENLPPVAASIEQLLERQWSEGQQFLLEQGTPSDILGMLKSLHQLQVENRRLEEQIKNLTAKKERLQLLNAQLSVPFPTITANPSPSHQIHTFSAQTAPTTDSLNSSKSPHIGNSFLPDNSLPVLNQDLTSSGQSTSSSSALSTPPPAGQSPAQQGSGVSGVQQVNGVTVGALASGMQPVTSTIPAVSAVGGIIGALPGNQLAINGIVGALNGVMQTPVTMSQNPTPLTHTTVPPNATHPMPATLTNSASGLGLLSDQQRQILIHQQQFQQLLNSQQLTPEQHQAFLYQLMQHHHQQHHQPELQQLQIPGPTQIPINNLLAGTQAPPLHTATTNPFLTIHGDNASQKVARLSDKTGPVAQEKS
- binding: binds
